Residue numbers refer to the chain shown, from its start. No constants are given. Whether binding was seen depends on the method and setting. Some entries that bind do so weakly or less than the wild type. Values belong to the binder of their own block, whether it stands above or below them.
How the values were obtained:
[1] = molecular target: Cynomolgus Nectin-4 on CHO cells (cynomolgus); test: flow cytometry on CHO cells expressing cynomolgus Nectin-4
[2] = molecular target: human Nectin-4 Mutant 1 (human) (UniProt Q96NY8); test: binding to HEK-293T cells transfected with the Nectin-4 mutant
[3] = molecular target: human Nectin-4 Mutant 2 (human) (UniProt Q96NY8); test: as above
[4] = molecular target: human Nectin-4 Mutant 3 (human) (UniProt Q96NY8); test: as above
[5] = molecular target: human Nectin-4 Mutant 4 (human) (UniProt Q96NY8); test: as above
[6] = molecular target: human Nectin-4 Mutant 6 (human) (UniProt Q96NY8); test: as above
[7] = molecular target: human Nectin-4 Mutant 8 (human) (UniProt Q96NY8); test: as above
[8] = molecular target: human Nectin-4 Mutant 9 (human) (UniProt Q96NY8); test: as above
[9] = molecular target: Cynomolgus Nectin-4 on CHO cells (cynomolgus); test: flow cytometry titration on CHO cells expressing cynomolgus Nectin-4, median MFI (PE)
[10] = molecular target: human Nectin-4 Mutant 7 (human) (UniProt Q96NY8); test: binding to HEK-293T cells transfected with the Nectin-4 mutant
[11] = molecular target: human Nectin-4 Mutant 7bis (human) (UniProt Q96NY8); test: as above

The chains behind the UniProt entries cited, without tags or fusion partners. Where a name states a change or a piece, a line headed by the entry shows the natural chain unless it says otherwise.
UniProt Q96NY8: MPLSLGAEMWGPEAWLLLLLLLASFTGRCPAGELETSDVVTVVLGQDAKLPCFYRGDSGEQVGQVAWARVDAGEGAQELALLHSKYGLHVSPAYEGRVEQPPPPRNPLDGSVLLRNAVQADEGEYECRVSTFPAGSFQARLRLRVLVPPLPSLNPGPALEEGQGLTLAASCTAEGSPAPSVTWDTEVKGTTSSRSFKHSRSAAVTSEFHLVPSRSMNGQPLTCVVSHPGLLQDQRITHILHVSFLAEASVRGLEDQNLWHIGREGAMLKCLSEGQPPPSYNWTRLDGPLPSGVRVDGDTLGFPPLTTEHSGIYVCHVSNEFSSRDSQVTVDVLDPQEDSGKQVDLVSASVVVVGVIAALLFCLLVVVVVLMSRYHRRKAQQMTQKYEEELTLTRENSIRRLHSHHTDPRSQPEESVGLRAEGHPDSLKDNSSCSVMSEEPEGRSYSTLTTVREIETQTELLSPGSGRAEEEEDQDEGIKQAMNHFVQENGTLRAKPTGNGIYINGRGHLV

- binding [1]: binds
- binding [2]: binds
- binding [3]: binds
- binding [4]: binds
- binding [5]: binds
- binding [6]: binds
- binding [7]: binds
- binding [8]: binds
- binding [9]: binds
B1: antibody 5E7 (antibody, human IgG1, V domains shown)
VH: QVQLQQPGAELVKPGASVKLSCKASGYIFTSYWMHWVKQRPGQGLEWIGEIDPSDSYTNYNQKFKGKATLTLDKSSSTTYMQLSSLTSEDSAVYYCVRGYGNYGDYWGQGTTLTVSS
VL: DVVMTQAAFSNPVTLGTSASISCRSSKSLLHSNGITYLYWYLQKPGQSPQLLIYQMSNLASGVPDRFSSSGSGTDFTLRISRVEAEDVGVYYCAQNLELPWTFGGGTKLEIK

- binding [1]: binds
- binding [2]: binds
- binding [3]: binds
- binding [4]: binds
- binding [5]: binds
- binding [6]: binds
- binding [7]: binds
- binding [8]: binds
- binding [9]: binds
B2: antibody 10B12 (antibody, human IgG1, V domains shown)
VH: B1 VH with I28T, L72V, T79A
VL: B1 VL with V2I

- binding [3]: binds
- binding [4]: binds
- binding [5]: binds
- binding [6]: binds
- binding [10]: binds
- binding [11]: binds
- binding [7]: binds
- binding [8]: binds
B3: antibody N41 (antibody, V domains shown)
VH: QVQLKQSGPGLVQPSQSLSITCTVSGFSLTNYGVHWVRQSPGKGLEWLGVIWSGGSTDYNAAFISRLSISKDTSKSQVFFKMNSLQADDTAIYYCARELIHAMDNWGQGTSVTVSS
VL: DIQMTQSPASLSVSVGETVTITCRASENIYSNLAWYQQKQGNSPQLLVFAATNLADGVPSRFSGSGSGTQYSLKINSLQSEDFGTYYCQHFWGTPTFGGGTKLEIK
